We go through seven molecules from publication PMC9054788.

By UniProt entry, the sequences of proteins in these tests, tags left out.
UniProt Q96RR4: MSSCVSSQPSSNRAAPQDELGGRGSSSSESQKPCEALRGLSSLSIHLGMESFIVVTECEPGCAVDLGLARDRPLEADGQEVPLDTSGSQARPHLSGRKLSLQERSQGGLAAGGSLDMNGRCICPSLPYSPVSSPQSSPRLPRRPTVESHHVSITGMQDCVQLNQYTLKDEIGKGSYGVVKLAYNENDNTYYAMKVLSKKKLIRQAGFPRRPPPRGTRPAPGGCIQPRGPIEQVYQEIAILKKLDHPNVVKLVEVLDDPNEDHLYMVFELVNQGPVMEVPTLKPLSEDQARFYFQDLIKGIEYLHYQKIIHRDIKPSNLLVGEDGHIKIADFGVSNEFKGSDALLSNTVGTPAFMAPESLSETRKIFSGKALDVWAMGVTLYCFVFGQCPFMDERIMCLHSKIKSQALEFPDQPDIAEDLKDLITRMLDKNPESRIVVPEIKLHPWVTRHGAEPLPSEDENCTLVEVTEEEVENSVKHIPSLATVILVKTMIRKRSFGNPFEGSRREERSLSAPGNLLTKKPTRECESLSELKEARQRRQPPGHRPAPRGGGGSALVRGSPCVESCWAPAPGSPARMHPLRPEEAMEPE

These are yes or no findings as the source states them, for the method shown. In cells and extracts the contact can be indirect. Some results given as binding are weak or reduced against the parent protein; the word gives no strength. For some assays here: Where a sequence is shown, tags or fusion partners need not be part of it.

For one assay, the target named is T1, Midkine (UniProt P21741).
T1 sequence: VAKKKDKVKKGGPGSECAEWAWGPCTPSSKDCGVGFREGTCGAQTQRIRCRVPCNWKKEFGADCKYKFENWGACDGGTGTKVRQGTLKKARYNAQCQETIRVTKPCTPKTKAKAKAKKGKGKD
Description: pull-down; indicated constructs expressed in HEK293T cells for 24 h; cell lysates pulled down with S protein beads (Fig. 2b, c).

Assay [1] deals with T2, endogenous LKB1 (human (endogenous in HEK293T, HCCLM3, HepG2)) (UniProt Q15831).
T2 sequence: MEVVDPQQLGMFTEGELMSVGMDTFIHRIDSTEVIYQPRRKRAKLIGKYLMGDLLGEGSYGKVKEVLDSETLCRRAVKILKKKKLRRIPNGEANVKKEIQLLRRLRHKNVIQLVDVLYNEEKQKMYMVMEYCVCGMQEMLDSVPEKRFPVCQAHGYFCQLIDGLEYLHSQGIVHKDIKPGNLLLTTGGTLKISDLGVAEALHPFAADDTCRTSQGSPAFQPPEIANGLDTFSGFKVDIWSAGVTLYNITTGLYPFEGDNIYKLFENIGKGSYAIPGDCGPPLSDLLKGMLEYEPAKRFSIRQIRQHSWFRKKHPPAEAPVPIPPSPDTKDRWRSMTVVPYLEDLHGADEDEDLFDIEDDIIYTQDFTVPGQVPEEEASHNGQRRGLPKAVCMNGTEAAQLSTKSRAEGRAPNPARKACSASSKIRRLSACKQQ
Description: co-IP; endogenous MDK or endogenous LKB1 immunoprecipitated from HCCLM3 or HepG2 cells, Western blot; also HCCLM3 cells transduced with MDK shRNA1.

Assay [2] addresses T3, LKB1 (construct not told) (UniProt Q15831).
T3 sequence: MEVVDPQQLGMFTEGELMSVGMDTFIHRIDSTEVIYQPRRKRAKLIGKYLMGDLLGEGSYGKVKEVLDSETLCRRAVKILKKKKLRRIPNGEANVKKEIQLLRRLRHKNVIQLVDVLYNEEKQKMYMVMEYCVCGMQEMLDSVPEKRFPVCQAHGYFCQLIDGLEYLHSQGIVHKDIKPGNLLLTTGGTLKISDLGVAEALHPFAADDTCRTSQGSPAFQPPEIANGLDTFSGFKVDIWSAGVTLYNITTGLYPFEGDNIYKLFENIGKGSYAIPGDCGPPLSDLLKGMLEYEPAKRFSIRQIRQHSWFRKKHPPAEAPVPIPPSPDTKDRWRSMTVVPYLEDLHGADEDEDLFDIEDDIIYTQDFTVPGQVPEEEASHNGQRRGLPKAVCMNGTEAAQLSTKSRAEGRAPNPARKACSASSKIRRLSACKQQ
Description: pull-down; indicated constructs expressed in HEK293T cells for 24 h; cell lysates pulled down with S protein beads (Fig. 2b, c).

Assay [3] addresses CAMKKβ (construct of Fig. 2b, not told) (UniProt Q96RR4). The description is as above.
For assay [4], the target named is T4, FLAG-tagged LKB1-KD (K78L) (UniProt Q15831).
T4 sequence: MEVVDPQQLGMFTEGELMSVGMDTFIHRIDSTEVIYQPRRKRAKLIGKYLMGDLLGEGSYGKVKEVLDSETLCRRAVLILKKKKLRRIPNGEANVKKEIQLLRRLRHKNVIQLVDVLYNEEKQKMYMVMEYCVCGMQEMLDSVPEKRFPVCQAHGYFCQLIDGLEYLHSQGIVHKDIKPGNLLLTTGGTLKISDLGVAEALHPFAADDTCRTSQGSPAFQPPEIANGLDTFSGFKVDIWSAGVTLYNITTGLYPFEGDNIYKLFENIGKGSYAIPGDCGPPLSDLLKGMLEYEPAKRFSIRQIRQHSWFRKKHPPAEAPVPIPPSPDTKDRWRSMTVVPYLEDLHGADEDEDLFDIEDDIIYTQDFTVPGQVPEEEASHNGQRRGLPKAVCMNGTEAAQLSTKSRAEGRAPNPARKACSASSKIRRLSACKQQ
Description: co-IP; FLAG-tagged LKB1-KD and SFB-tagged AMPKα1 expressed in HEK293T cells for 48 h with or without MDK-HA; immunoprecipitation with primary LKB1 and IgG antibodies.

Assay [5] addresses T4, FLAG-tagged LKB1-KD (K78L). Description: co-IP; FLAG-tagged LKB1 WT or KD (K78L) expressed in HEK293T cells (Supplementary Fig. S3a).
Assay [6] deals with T5, FLAG-tagged wild-type LKB1 (UniProt Q15831).
T5 sequence: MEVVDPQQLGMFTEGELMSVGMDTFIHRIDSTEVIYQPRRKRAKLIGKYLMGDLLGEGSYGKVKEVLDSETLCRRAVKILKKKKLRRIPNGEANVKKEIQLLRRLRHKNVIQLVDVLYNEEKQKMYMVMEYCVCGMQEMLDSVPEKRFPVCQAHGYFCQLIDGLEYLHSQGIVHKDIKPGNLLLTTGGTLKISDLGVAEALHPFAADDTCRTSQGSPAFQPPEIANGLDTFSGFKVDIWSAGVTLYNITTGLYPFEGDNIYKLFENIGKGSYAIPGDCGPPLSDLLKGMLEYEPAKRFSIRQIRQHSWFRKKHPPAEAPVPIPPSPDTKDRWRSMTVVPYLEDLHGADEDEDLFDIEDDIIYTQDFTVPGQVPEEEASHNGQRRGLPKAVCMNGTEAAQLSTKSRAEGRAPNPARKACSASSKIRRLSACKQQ
The description is as above.

The target of assay [7] is T6, endogenous Midkine (human (endogenous in HCCLM3 and HepG2)) (UniProt P21741).
T6 sequence: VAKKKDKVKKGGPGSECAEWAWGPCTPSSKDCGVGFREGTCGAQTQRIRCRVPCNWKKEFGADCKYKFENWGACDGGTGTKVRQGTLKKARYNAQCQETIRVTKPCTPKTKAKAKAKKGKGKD
Description: co-IP; endogenous MDK or endogenous LKB1 immunoprecipitated from HCCLM3 or HepG2 cells, Western blot; also HCCLM3 cells transduced with MDK shRNA1.

Another assay deals with T7, SFB-tagged LKB1 (UniProt Q15831).
T7 sequence: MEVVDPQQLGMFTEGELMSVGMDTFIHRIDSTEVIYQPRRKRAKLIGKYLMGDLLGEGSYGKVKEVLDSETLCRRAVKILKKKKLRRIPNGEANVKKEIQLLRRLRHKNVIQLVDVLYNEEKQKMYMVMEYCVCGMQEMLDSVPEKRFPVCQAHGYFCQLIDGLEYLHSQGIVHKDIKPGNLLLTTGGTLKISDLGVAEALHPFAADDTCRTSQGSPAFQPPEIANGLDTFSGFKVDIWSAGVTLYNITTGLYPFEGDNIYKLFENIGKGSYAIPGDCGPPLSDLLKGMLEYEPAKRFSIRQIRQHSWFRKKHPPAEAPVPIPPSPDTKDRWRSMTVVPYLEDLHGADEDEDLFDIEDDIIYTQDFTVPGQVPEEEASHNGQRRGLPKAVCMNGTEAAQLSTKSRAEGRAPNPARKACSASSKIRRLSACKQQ
Description: pull-down; HEK293T cells cotransfected with different doses of MDK-HA and SFB-tagged LKB1 or SFB-tagged AMPKα1; pulled down with S protein beads.

Assay [8] addresses T2, endogenous LKB1 (human (endogenous in HEK293T, HCCLM3, HepG2)). Description: co-IP; endogenous LKB1 immunoprecipitated from HEK293T cells transduced with MDK-HA or control.
For assay [9], the target named is T8, Midkine stably expressed in A549 cells (UniProt P21741).
T8 sequence: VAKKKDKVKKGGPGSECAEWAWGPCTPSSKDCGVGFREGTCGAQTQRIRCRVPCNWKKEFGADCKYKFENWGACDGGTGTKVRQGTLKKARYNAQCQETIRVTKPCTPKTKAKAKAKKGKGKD
Description: co-IP; MDK coprecipitates from A549 cells stably expressing MDK, LKB1 reconstituted.

Another assay addresses T9, MDK-HA (UniProt P21741).
T9 sequence: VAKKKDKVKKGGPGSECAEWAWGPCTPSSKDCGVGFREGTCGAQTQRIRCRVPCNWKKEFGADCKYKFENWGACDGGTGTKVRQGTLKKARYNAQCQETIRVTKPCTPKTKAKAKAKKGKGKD
Description: co-IP; HEK293T cells cotransfected with MDK-HA and Flag-tagged LKB1 or Myc-tagged Mo25a; immunoprecipitated with HA primary antibody.

For “endogenous CAMKKβ (from UniProt Q96RR4 1-588)”, the binding result with Midkine is “binds”.

B1: endogenous Midkine (protein, UniProt P21741 21-143)
chain: VAKKKDKVKKGGPGSECAEWAWGPCTPSSKDCGVGFREGTCGAQTQRIRCRVPCNWKKEFGADCKYKFENWGACDGGTGTKVRQGTLKKARYNAQCQETIRVTKPCTPKTKAKAKAKKGKGKD
As for B1, the binding result in assay [1] is on record as “binds”.

B2: Midkine (wild type, construct not told) (protein, UniProt P21741 21-143)
chain: VAKKKDKVKKGGPGSECAEWAWGPCTPSSKDCGVGFREGTCGAQTQRIRCRVPCNWKKEFGADCKYKFENWGACDGGTGTKVRQGTLKKARYNAQCQETIRVTKPCTPKTKAKAKAKKGKGKD
With B2, the binding entry in assay [2] and in assay [3] was “binds” each time.

B3: STRADα (protein, UniProt Q7RTN6 1-431)
chain: MSFLVSKPERIRRWVSEKFIVEGLRDLELFGEQPPGDTRRKTNDASSESIASFSKQEVMSSFLPEGGCYELLTVIGKGFEDLMTVNLARYKPTGEYVTVRRINLEACSNEMVTFLQGELHVSKLFNHPNIVPYRATFIADNELWVVTSFMAYGSAKDLICTHFMDGMNELAIAYILQGVLKALDYIHHMGYVHRSVKASHILISVDGKVYLSGLRSNLSMISHGQRQRVVHDFPKYSVKVLPWLSPEVLQQNLQGYDAKSDIYSVGITACELANGHVPFKDMPATQMLLEKLNGTVPCLLDTSTIPAEELTMSPSRSVANSGLSDSLTTSTPRPSNGDSPSHPYHRTFSPHFHHFVEQCLQRNPDARPSASTLLNHSFFKQIKRRASEALPELLRPVTPITNFEGSQSQDHSGIFGLVTNLEELEVDDWEF
For B3, the binding result (in assay [4]; in assay [5]; in assay [6]; in [1]; in assay [7]; with SFB-tagged LKB1) was “binds” throughout. Besides, the binding entry (with Midkine; in assay [8]) was “binds” throughout.

B4: Mo25a (protein, UniProt Q9Y376 1-341)
chain: MPFPFGKSHKSPADIVKNLKESMAVLEKQDISDKKAEKATEEVSKNLVAMKEILYGTNEKEPQTEAVAQLAQELYNSGLLSTLVADLQLIDFEGKKDVAQIFNNILRRQIGTRTPTVEYICTQQNILFMLLKGYESPEIALNCGIMLRECIRHEPLAKIILWSEQFYDFFRYVEMSTFDIASDAFATFKDLLTRHKLLSAEFLEQHYDRFFSEYEKLLHSENYVTKRQSLKLLGELLLDRHNFTIMTKYISKPENLKLMMNLLRDKSRNIQFEAFHVFKVFVANPNKTQPILDILLKNQAKLIEFLSKFQNDRTEDEQFNDEKTYLVKQIRDLKRPAQQEA
With B4, the binding result in assay [4] was “binds”; in assay [9] it was “no binding”; in assay [5], “binds”; in assay [6], “binds”; in [1], “binds”; in assay [7] it was “no binding”. The binding result was “binds” with SFB-tagged LKB1, “no binding” with Midkine and “binds” in [8].

B5: Myc-tagged Mo25a (protein, UniProt Q9Y376 1-341)
chain: MPFPFGKSHKSPADIVKNLKESMAVLEKQDISDKKAEKATEEVSKNLVAMKEILYGTNEKEPQTEAVAQLAQELYNSGLLSTLVADLQLIDFEGKKDVAQIFNNILRRQIGTRTPTVEYICTQQNILFMLLKGYESPEIALNCGIMLRECIRHEPLAKIILWSEQFYDFFRYVEMSTFDIASDAFATFKDLLTRHKLLSAEFLEQHYDRFFSEYEKLLHSENYVTKRQSLKLLGELLLDRHNFTIMTKYISKPENLKLMMNLLRDKSRNIQFEAFHVFKVFVANPNKTQPILDILLKNQAKLIEFLSKFQNDRTEDEQFNDEKTYLVKQIRDLKRPAQQEA
With B5, the binding entry in the assay with MDK-HA is recorded as “no binding”.

B6: STRADβ (protein, UniProt Q9C0K7 1-418)
chain: MSLLDCFCTSRTQVESLRPEKQSETSIHQYLVDEPTLSWSRPSTRASEVLCSTNVSHYELQVEIGRGFDNLTSVHLARHTPTGTLVTIKITNLENCNEERLKALQKAVILSHFFRHPNITTYWTVFTVGSWLWVISPFMAYGSASQLLRTYFPEGMSETLIRNILFGAVRGLNYLHQNGCIHRSIKASHILISGDGLVTLSGLSHLHSLVKHGQRHRAVYDFPQFSTSVQPWLSPELLRQDLHGYNVKSDIYSVGITACELASGQVPFQDMHRTQMLLQKLKGPPYSPLDISIFPQSESRMKNSQSGVDSGIGESVLVSSGTHTVNSDRLHTPSSKTFSPAFFSLVQLCLQQDPEKRPSASSLLSHVFFKQMKEESQDSILSLLPPAYNKPSISLPPVLPWTEPECDFPDEKDSYWEF
With B6, in the assay with Midkine, the binding entry is listed as “binds”.
